Data as given in PubChem BioAssay AID743121 (NCATS, 2013)
Assay: 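Knock-downs that sensitise breast cancer cells to camptothecin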 (primary screen). Cell system: MDA-MB-231 cells, a human breast cancer line. Knock-down reagent: single siRNA against human genes, 20 nM siRNA (0.8 pmol per well). Time to read-out: 120 h (drug added 48 h after transfection, read 72 h later). Conditions: camptothecin 20 nM (about EC30) for 72 h; vehicle 0.1% DMSO in parallel plates. Measurement: 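CellTiter-Glo ATP signal, scaled to control siRNA as percent viability; sensitisation given as log2 of untreated divided by camptothecin-treated viability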. Reading the numbers: log2 vehicle/camptothecin viability: higher = stronger sensitisation to camptothecin; viability with camptothecin and viability without drug: higher = more viable cells. Hit rule: 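Each gene scored by redundant siRNA activity (RSA) over its individual siRNA ratios; a gene is called active at p < 0.001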.
The deposit covers about 26,000 reagents; below is an unselected part. Of all reagents, 167 (0.63%) are marked active. 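Calls are per gene from RSA p-values that are not deposited; an individual active-marked siRNA can sensitise only weakly.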 Unmarked entries are inactive. The numbers tell different reagents against one gene apart. Reagent sequences are not shown.

target	reagent	log2 vehicle/camptothecin viability	viability with camptothecin (% of control)	viability without drug (% of control)
TAAR9 (GeneID 134860)	1	0.229	57.7	67.6
TAAR9 (GeneID 134860)	2	-0.453	33.9	24.8
TAAR9 (GeneID 134860)	3	-0.0442	79.5	77.1
TAAR9 (GeneID 134860)	4	0.461	19.3	26.6
DHRS7C (GeneID 201140)	1	-0.364	98.3	76.4
DHRS7C (GeneID 201140)	2	-0.339	73.7	58.3
DHRS7C (GeneID 201140)	3	-0.25	70.9	59.6
DHRS7C (GeneID 201140)	4	-0.344	57.9	45.7
MARCO (GeneID 8685)	1	-0.613	75	49.1
MARCO (GeneID 8685)	2	-0.383	70	53.7
MARCO (GeneID 8685)	3	-0.553	65.2	44.4
MARCO (GeneID 8685)	4	-0.365	74.9	58.1
LORICRIN (GeneID 4014)	1	-0.377	121	93
LORICRIN (GeneID 4014)	2	-0.163	90	80.4
LORICRIN (GeneID 4014)	3	-0.0962	104	97.7
LORICRIN (GeneID 4014)	4	-0.126	127	117
EVI2A (GeneID 2123)	1	-0.384	87.8	67.3
EVI2A (GeneID 2123)	2	-0.0829	107	101
EVI2A (GeneID 2123)	3	-0.0613	88	84.3
EVI2A (GeneID 2123)	4	-0.654	66.1	42
GZMA (GeneID 3001)	1	0.0272	78.4	79.9
GZMA (GeneID 3001)	2	0.33	50.4	63.3
GZMA (GeneID 3001)	3	-0.201	89.2	77.6
GZMA (GeneID 3001)	4	-0.185	102	90.1

Continued (4 carried over from the part before).
target	reagent	log2 vehicle/camptothecin viability	viability with camptothecin (% of control)	viability without drug (% of control)
GZMA (GeneID 3001)	1	0.0272	78.4	79.9
GZMA (GeneID 3001)	2	0.33	50.4	63.3
GZMA (GeneID 3001)	3	-0.201	89.2	77.6
GZMA (GeneID 3001)	4	-0.185	102	90.1
PRKAA2 (GeneID 5563)	1	-0.191	119	104
PRKAA2 (GeneID 5563)	2	-0.241	113	95.6
PRKAA2 (GeneID 5563)	3	-0.175	111	98.3
PRKAA2 (GeneID 5563)	4	-0.167	126	112
ASB11 (GeneID 140456)	1	-0.357	80.6	62.9
ASB11 (GeneID 140456)	2	0.0432	77.5	79.9
ASB11 (GeneID 140456)	3	-0.0494	81.2	78.5
ASB11 (GeneID 140456)	4	-0.221	100	86
ZNF443 (GeneID 10224)	1	0.0561	65.8	68.4
ZNF443 (GeneID 10224)	2	-0.108	106	98.5
ZNF443 (GeneID 10224)	3	-0.409	51.5	38.8
ZNF443 (GeneID 10224)	4	-0.143	86.8	78.7
RPL36 (GeneID 25873)	1	-0.174	42	37.2
RPL36 (GeneID 25873)	2	-0.42	7.1	5.3
RPL36 (GeneID 25873)	3	-0.827	15.9	8.98
RPL36 (GeneID 25873)	4	-0.382	35.4	27.2
GNB5 (GeneID 10681)	1	-0.8	47.3	27.2
GNB5 (GeneID 10681)	2	-0.00385	89.9	89.7
GNB5 (GeneID 10681)	3	-0.133	77.7	70.9
AHSG (GeneID 197)	1	-0.102	106	98.6
AHSG (GeneID 197)	2	0.207	101	116
AHSG (GeneID 197)	3	0.142	69.7	76.9
AHSG (GeneID 197)	4	0.0668	70.7	74
